Literature values in patent publication US20100247617A1, “Transdermal Administration Of (2S)-(4E)-N-Methyl-5-(3-(5-Isopropoxypyridin)yl)-4-Penten-2-Amine” (TARGACEPT, INC., priority 2007, published 2010).
Some of these results come from one statement about several compounds together.

Details: collective range for the listed drugs; cited from earlier work

## C[C@]12CC[C@@H]3c4ccc(O)cc4CC[C@H]3[C@@H]1CC[C@@H]2O [estradiol]
  steady state flux of active ingredients classified as successful transdermals: 0.2-40 μg/cm^2/h
